Drawing on the supplement of paper PMC8256030, this text covers mCherry and percent effect for 11 compounds.

In experiment [1] the test system is SARS-CoV-2 -1 PRF reporter mCherry-FSE-GFP(-1). Briefly: mCherry (red) intensity as percent of control; higher = higher upstream reporter expression. The conditions noted are these: 10 µM; 24 h; HEK293T.
The test system is the same in experiment [2]. Briefly: percent effect, decrease of GFP/mCherry ratio (-1 PRF reporter) relative to controls; higher = stronger frameshift inhibition. The conditions noted are these: 10 µM; 24 h; HEK293T.

The structures appear in SMILES notation. Some of the results follow. Repeats in this data set agree poorly, so a single value says little.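 HEK293T cells were given each compound shortly before transfection with a reporter in which red mCherry is followed by the SARS-CoV-2 frameshift element and then GFP in the −1 frame, so GFP appears only after frameshifting.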

For `CC[C@@]1(O)C(=O)OCc2c1cc1n(c2=O)Cc2cc3c(CN(C)C)c(O)ccc3nc2-1`, the mCherry in experiment [1] was found to be 153%. For the same compound, the percent effect in experiment [2] came to 10.4%.

`c1ccc2c(c1)OCC(CN1CCCCC1)O2` (configuration not stated) [piperoxan]: in experiment [1], the mCherry came to 79.5%. In addition, the percent effect in experiment [2] is 3.12%.

Regarding `O=C(CCBr)N1CCN(C(=O)CCBr)CC1` [pipobroman], the mCherry in experiment [1] is 91.5%. Further, the percent effect in experiment [2] was found to be 0.506%.

`Cc1ccc(S(=O)(=O)NC(=O)NC2CCCC2)cc1` [tolpentamide]: in experiment [1], the mCherry came out at 77.9%. In addition, in experiment [2], the percent effect was -4.41%.

`CC(C)(CO)[C@@H](O)C(=O)NCCC(=O)O` [Pantothenic acid] yielded a mCherry in experiment [1] of 105%. Further, the percent effect in experiment [2] was 3.18%.

As to `CC(=O)N[C@H](Cc1ccc2ccccc2c1)C(=O)N[C@H](Cc1ccc(Cl)cc1)C(=O)N[C@H](Cc1cccnc1)C(=O)N[C@@H](CO)C(=O)N(C)[C@@H](Cc1ccc(O)cc1)C(=O)N[C@H](CC(N)=O)C(=O)N[C@@H](CC(C)C)C(=O)N[C@@H](CCCCNC(C)C)C(=O)N1CCC[C@H]1C(=O)N[C@H](C)C(N)=O` [abarelix], the mCherry in experiment [1] is 96.3%. Moreover, in experiment [2], the percent effect was -3.22%.

Consider `CCCCCOC(=O)c1ccc(N(C)C)cc1` [padimate], for which, in experiment [1], the mCherry amounted to 102%. The percent effect in experiment [2] was -22.7%.

Take `CCN1C(=O)NC(c2ccccc2)C1=O` (configuration not stated) [ethotoin]: in experiment [1], the mCherry came to 108%. Moreover, the percent effect in experiment [2] is -2%.

Take `CN1CCc2nc(C(=O)N[C@@H]3C[C@@H](C(=O)N(C)C)CC[C@@H]3NC(=O)C(=O)Nc3ccc(Cl)cn3)sc2C1` [Edoxaban]: in experiment [1], the mCherry is 111%. For the same compound, the percent effect in experiment [2] was -2.84%.

Turning to `CCCCC[C@H](O)/C=C/[C@@H]1c2cc(CCCCC(=O)O)n(-c3ccccc3)c2C[C@H]1O` [piriprost], the mCherry in experiment [1] was determined as 103%. In addition, the percent effect in experiment [2] was -4.84%.

`CN1CCC[C@H]1c1cccnc1` [Nicotine]: the mCherry in experiment [1] was determined as 98.4%. Also, the percent effect in experiment [2] is -10.5%.
